The values that follow come from patent US20190225694A1 (ZAKLADY FARMACEUTYCZNE POLPHARMA, published 2019).

Sequences of proteins named here, by UniProt entry; tags and fusion partners are left off. A change or cut given only in a name is not applied to a line headed by its entry.
UniProt P13612: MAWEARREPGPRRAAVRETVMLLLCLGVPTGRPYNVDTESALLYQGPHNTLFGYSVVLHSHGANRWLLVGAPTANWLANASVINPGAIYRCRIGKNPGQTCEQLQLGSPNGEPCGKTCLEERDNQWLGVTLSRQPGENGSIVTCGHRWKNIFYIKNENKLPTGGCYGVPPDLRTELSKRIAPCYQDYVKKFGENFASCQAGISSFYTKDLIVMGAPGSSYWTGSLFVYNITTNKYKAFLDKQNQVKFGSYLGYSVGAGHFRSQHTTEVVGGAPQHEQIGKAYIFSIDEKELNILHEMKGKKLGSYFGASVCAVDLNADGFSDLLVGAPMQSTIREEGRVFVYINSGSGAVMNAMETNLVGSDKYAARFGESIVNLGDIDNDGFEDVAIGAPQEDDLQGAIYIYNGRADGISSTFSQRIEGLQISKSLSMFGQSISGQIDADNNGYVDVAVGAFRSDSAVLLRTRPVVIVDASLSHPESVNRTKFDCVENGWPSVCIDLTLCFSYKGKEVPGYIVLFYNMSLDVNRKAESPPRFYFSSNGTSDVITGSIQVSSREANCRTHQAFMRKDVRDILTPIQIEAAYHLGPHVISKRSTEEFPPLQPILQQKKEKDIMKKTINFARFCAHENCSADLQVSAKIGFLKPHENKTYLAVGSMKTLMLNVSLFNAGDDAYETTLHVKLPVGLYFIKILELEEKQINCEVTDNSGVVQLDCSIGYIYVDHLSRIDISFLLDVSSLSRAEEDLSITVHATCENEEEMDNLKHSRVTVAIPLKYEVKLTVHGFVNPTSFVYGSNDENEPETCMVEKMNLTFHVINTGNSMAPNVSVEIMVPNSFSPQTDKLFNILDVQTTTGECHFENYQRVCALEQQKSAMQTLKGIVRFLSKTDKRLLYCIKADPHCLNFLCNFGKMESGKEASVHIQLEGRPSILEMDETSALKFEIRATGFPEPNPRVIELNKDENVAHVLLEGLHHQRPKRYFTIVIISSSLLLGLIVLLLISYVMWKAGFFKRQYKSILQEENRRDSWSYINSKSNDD

These are yes or no findings as the source states them, for the method shown. Some binding calls cover weakened binding; strength is not graded here.

In this assay the target is integrin α4β1 (coated, direct ELISA) (UniProt P13612). Put plainly: direct ELISA, coated integrin α4β1. Background: In an ELISA, binding on a coated surface is turned into a signal by an enzyme label.

B1: natalizumab biosimilar antibody produced by CHO DG44 Clone 1 (antibody, human IgG4, kappa, V domains shown)
VH: QVQLVQSGAEVKKPGASVKVSCKASGFNIKDTYIHWVRQAPGQRLEWMGRIDPANGYTKYDPKFQGRVTITADTSASTAYMELSSLRSEDTAVYYCAREGYYGNYGVYAMDYWGQGTLVTVSS
VL: DIQMTQSPSSLSASVGDRVTITCKTSQDINKYMAWYQQTPGKAPRLLIHYTSALQPGIPSRFSGSGSGRDYTFTISSLQPEDIATYYCLQYDNLWTFGQGTKVEIKR
notes: Tested product from the clone selection step; full-length IgG4
With B1, the binding result is on record as “binds”.

B2: natalizumab biosimilar antibody produced by CHO DG44 Clone 2 (antibody, human IgG4, kappa, V domains shown)
VH: B1 VH
VL: B1 VL
notes: as for B1
Regarding B2, the binding entry is “binds”.
